In patent publication US20210171624A1 (ELIXIRON IMMUNOTHERAPEUTICS HONG KONG, published 2021):
Positions count from the first letter of the chain named. These are yes or no findings as the source states them, for the method shown. Some results given as binding are weak or reduced against the parent protein; the word gives no strength.

Legend:
[1] = target: T1, recombinant human IFN-γ protein (human, UniProt P01579 24-166, limits assumed); test: BLI epitope binning, biotinylated human IFN-γ on streptavidin tips, antibodies at 5 µg/mL
T1 sequence: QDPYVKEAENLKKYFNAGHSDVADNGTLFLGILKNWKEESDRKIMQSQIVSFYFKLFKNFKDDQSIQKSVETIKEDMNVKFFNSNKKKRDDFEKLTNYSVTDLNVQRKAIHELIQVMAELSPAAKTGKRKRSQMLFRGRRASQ

[2] = target: T1, recombinant human IFN-γ protein; test: ELISA, plate coated with 2 µg/mL recombinant human IFN-γ, anti-human IgG Fc-AP detection, OD 405 nm
[3] = target: T1, recombinant human IFN-γ protein; test: BLI, mAb captured on AHC biosensor
[4] = target: T1, recombinant human IFN-γ protein; test: BLI, antibody captured on AHC biosensor, recombinant human IFN-γ 0.625-10 nM as analyte
[5] = target: T1, recombinant human IFN-γ protein; test: ELISA, human IFN-γ coated at 2 µg/mL, mAb at 1 and 0.1 µg/mL, OD405
[6] = target: T1, recombinant human IFN-γ protein; test: ELISA, biotinylated human IFN-γ on streptavidin plate, OD450-650
[7] = target: T1, recombinant human IFN-γ protein; test: BLI, antibody captured on AHC biosensor, recombinant human IFN-γ 0.625-20 nM as analyte
[8] = target: T1, recombinant human IFN-γ protein; test: ELISA, biotinylated human IFN-γ on streptavidin plate, HRP anti-human IgG, OD 450-650 nm
Description: Recombinant human IFN-γ (R&D systems 285-IF-100) and Cynomolgus IFN-γ (R&D systems 961-RM-025) were biotinylated according to kit manual (EZ-Link NHS-LC-Biotin; Thermo #21336) and bound to streptavidin coated plate respectively. After incubated at room temperature for 1-2 hours, the plate was washed three times with 300 μL wash buffer. Serial dilutions of anti-IFN-γ antibody were added to wells. After incubated at room temperature for 1-2 hours, the plate was washed three times with 300 μL wash buffer. HRP anti-Human IgG was applied to each well at room temperature for 1 hour incubation. After washing, the plates were developed with TMB substrate, and analyzed under OD₄₅₀₋₆₅₀.

[9] = target: T1, recombinant human IFN-γ protein; test: BLI, antibody captured on AHC biosensor, recombinant human IFN-γ 0.625-20 nM as analyte [cont.]

Measured: binding

B1: antibody 2F2 (antibody, human IgG1, V domains shown)
VH: EVQLVESGGGLVKPGESLRLACVASGFNFSDYYMTWIRQAPGKGLEWVSYISNSGSHTYYADAVKGRFTVSRDNAKNSLYLQMTSLRGEDTAIYFCARDPSIMRGTYYMDVWGKGTTVTVSS
VL: QSVLTQPPSASGTPGQRVTISCSGSSSNIGTNPVSWYQQFPGMAPKLLIYFNNQRPSGVPERFSGSKSGTPASLAIGGLQSEDEANYYCASWDDTLNGLVFGGGTKLTVL
notes: Human IgG1 lambda
binds: [1] | [2] | [3] | [4] | [5]

B2: antibody 1E8 (antibody, human IgG1, V domains shown)
VH: EVQLLESGGGLVQPGGPLRLSCAASGFTFSIYSMNWVRQAPGKGLEWVSSISGSGDNTYYADSVKGRFTITRDSSKNTLYLQMNTLRAEDTAVYFCAKSGRNIISPGFDSWGQGTLVTVSS
VL: QPVLTQPPSASASLGASVTLTCTLNSDYGDYKVDWYQQRPGKGPRFVMRVGTGGIVGSKGDGIPDRFSVLGSGLNRFLTIKNIQEEDESDYYCGADHGSANNFIWVFGGGTKLTVL
notes: Human IgG1 lambda
binds: [1] | [2] | [3] | [4] | [5]

B3: antibody 2B6 (antibody, human IgG1, V domains shown)
VH: EVQLVESGGGLVKPGGSLRLSCAASGFPFSRYSMHWVRQAPGKGLEWVSSMTSRTNHKYYADSLKGRFLISRDNDRDSLYLEMNSLGVEDTAIYFCARGYDTSGSDSGVDFQYWGQGTLVTVSS
VL: NFMLTQPHSVSESPGKTITISCTRGRGYIASYYVQWYQQRPGGVPKIVVFEDTQRPSGVPDRISGSIDTSTNSASLTISGLQTEDEADYYCQSYDDANHVIFGGGTKLTVL
notes: Human IgG1 lambda
binds: [1] | [2] | [6] | [3] | [7] | [8] | [4] | [5]

B4: antibody 2A6 (antibody, human IgG1, V domains shown)
VH: EVQLVESGGGLVKPGDSLTVSCVASGFTFSNYFIHWVRQAPGKGLEWVATISGRTKYMFYSDSLRGRFTVSRDNANNSVYLHMSSLRGEDTALYYCVRGYDHSDSNSAADLLHWGRGTLVTVSS
VL: NFMLTQPLSVSGYPGKTIVISCVRSSGSVASHYVQWFQQRPGSAPAMVIYEDSHRPSGIPDRFSGSVDASSNSASLTISGLKTEDEADYFCQSYYGNNQVLFGGGTKLTVL
modifications: partial N-linked glycosylation at Asn-76 of the VH
notes: Human antibody from a single B cell, cloned into human IgG1 lambda expression vectors and made in FreeStyle 293-F cells
binds: [1] | [2] | [6] | [3] | [7] | [8] | [4] | [5]

B5: antibody AB (antibody, human IgG1, V domains shown)
VH: B4 VH
VL: B3 VL
notes: Combination of the 2A6 VH heavy chain and the 2B6 VL light chain; human IgG1 lambda; also called VH2A6/VL2B6
binds: [2] | [6] | [8] | [9] | [5]

B6: antibody 2A6_A (antibody, human IgG1, V domains shown)
VH: B4 VH with N76A
VL: B4 VL
notes: removes the N-glycosylation site of the VH; human IgG1 lambda; also called c2A6_A
binds: [6] | [7] | [8]

B7: antibody 2A6_Q (antibody, human IgG1, V domains shown)
VH: B4 VH with N76Q
VL: B4 VL
notes: removes the N-glycosylation site of the VH; human IgG1 lambda; also called c2A6_Q
binds: [6] | [7] | [8]
